Literature values, collected in patent publication US6608112B1, “Use of metalloproteinase inhibitors in the treatment and prevention of pulmonary emphysema” (The Trustees of Columbia University in the City of New York, priority 1997, dated 2003).
For at least one compound, name, drawing or mass did not settle the structure.

Tested on: patients with malignant ascites
Details: cancer patients with malignant ascites; reported by Brown 1995

CNC(=O)[C@H](Cc1ccccc1)NC(=O)[C@H](CC(C)C)[C@H](CSc1cccs1)C(=O)NO [batimastat, [(4-N-hydroxyamino)-2(R)-isobutyl-3(S)-(2-thieny-thiomethyl)succinyl]-L-phenylalanine-N-methylamide]
efficacy in phase I/II trial: preliminary signs of efficacy
